Measurements taken from the supplement of paper PMC10849652.
Some of the results follow.

Chains of the proteins cited; added tags and fusions are not shown. Lines headed by an entry give the natural chain unless they say otherwise; changes in a name come on top.
UniProt O75818: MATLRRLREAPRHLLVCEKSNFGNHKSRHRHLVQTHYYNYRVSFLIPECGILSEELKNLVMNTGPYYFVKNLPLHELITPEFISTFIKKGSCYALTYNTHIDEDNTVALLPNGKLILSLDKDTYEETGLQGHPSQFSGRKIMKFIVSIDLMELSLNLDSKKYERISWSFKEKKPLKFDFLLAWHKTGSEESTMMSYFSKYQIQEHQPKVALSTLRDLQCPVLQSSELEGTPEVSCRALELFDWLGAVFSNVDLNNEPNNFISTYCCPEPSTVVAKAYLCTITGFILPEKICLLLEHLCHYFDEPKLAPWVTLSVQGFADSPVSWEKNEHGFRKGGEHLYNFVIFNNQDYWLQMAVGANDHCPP
UniProt P56182: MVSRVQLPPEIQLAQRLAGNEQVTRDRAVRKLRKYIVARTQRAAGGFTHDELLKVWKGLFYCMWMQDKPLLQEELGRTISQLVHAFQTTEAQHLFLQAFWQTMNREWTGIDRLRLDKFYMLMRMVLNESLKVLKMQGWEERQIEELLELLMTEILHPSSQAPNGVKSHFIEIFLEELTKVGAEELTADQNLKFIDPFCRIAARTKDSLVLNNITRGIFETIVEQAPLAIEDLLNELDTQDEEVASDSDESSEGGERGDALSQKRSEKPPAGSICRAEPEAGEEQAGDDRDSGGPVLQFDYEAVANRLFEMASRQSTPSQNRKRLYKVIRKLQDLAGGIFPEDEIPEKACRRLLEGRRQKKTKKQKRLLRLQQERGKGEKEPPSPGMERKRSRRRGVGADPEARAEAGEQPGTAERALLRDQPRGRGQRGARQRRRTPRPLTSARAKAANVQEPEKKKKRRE
UniProt Q8IZ73: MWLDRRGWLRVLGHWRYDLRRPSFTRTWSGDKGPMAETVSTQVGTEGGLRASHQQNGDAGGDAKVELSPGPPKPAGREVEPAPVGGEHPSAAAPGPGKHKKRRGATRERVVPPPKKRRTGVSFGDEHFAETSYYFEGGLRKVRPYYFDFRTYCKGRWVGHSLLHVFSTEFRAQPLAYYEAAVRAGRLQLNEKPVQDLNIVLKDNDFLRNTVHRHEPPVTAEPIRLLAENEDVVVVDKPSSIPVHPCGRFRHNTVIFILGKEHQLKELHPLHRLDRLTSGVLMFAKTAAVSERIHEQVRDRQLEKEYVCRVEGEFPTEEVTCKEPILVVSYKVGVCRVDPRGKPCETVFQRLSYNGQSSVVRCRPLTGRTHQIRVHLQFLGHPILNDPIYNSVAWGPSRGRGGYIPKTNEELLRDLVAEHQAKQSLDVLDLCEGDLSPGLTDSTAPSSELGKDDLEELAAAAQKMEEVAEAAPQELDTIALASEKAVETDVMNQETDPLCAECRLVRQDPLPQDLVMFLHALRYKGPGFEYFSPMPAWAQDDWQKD
UniProt Q9HB90, whole entry, looked up: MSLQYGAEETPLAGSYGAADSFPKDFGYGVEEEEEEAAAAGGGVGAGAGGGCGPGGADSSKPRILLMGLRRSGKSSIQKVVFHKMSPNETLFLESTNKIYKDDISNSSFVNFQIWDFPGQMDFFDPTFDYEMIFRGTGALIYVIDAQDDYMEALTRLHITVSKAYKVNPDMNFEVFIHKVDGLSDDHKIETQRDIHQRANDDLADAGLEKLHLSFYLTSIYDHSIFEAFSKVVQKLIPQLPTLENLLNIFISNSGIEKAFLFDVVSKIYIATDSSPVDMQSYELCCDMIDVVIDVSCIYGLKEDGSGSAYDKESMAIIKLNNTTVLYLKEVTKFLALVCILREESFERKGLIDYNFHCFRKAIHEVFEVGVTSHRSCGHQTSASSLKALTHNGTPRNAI
UniProt Q99584: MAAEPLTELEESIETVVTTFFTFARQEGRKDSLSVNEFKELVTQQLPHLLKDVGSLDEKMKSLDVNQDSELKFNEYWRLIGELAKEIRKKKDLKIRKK
UniProt Q92622: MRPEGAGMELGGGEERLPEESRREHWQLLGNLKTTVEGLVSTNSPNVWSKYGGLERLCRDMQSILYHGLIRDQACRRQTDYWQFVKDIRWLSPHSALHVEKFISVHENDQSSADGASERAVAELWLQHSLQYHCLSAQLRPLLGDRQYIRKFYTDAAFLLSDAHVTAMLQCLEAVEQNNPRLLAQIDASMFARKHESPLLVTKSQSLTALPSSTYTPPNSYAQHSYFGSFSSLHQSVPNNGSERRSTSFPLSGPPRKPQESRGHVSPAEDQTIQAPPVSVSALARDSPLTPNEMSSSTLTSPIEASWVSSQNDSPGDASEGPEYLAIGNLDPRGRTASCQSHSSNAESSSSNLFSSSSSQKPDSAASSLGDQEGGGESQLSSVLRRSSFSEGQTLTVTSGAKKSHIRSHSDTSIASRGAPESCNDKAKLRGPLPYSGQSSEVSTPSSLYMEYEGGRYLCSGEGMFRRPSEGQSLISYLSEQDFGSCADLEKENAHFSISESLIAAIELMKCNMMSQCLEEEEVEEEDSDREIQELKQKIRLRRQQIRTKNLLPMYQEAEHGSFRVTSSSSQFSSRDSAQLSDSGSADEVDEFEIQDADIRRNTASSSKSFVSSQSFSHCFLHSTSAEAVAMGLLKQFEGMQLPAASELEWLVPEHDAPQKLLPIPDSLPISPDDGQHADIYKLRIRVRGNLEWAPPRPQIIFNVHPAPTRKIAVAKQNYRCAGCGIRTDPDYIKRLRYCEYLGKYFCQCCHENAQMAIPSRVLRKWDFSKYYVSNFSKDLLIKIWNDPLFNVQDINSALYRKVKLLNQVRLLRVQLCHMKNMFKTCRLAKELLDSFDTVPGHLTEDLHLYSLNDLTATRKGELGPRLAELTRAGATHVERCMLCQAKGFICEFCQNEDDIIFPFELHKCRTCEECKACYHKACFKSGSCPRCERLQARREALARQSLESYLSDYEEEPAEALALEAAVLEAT
UniProt Q8N122, whole entry, looked up: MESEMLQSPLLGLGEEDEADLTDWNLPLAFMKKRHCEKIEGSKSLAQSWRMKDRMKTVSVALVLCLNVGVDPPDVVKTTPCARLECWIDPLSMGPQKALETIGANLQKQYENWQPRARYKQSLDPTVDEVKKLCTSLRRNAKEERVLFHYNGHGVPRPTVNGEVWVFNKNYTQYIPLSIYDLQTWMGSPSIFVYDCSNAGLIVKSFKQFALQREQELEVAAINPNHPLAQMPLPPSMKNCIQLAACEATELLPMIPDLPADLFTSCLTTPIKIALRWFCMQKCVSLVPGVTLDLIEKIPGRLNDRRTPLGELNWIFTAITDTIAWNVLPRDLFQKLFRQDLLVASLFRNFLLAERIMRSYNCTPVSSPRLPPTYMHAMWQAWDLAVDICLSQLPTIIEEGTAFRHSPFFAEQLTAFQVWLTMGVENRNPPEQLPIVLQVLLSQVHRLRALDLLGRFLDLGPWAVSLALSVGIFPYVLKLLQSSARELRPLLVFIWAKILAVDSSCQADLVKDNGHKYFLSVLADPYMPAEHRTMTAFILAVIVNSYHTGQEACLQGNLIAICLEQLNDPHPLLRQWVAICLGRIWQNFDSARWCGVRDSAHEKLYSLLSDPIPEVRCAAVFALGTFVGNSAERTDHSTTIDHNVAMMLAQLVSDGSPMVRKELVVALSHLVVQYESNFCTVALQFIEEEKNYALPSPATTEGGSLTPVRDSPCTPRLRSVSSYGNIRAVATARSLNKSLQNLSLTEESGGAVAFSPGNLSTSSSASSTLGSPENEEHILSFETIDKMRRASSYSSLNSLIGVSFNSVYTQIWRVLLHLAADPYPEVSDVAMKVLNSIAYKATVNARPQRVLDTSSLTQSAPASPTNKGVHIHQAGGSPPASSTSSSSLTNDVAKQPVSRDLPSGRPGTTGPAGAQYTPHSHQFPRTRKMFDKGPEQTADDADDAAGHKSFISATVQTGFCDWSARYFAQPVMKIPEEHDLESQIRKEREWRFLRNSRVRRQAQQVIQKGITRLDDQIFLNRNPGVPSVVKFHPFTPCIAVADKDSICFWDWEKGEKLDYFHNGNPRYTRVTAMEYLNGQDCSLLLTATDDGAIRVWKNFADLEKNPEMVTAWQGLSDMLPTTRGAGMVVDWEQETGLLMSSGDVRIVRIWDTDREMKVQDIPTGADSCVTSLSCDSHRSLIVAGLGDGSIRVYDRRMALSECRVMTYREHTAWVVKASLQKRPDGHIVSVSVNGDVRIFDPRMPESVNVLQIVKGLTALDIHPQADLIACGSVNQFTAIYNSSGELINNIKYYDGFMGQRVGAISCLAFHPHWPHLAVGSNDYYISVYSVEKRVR
UniProt Q5VZM2, whole entry, looked up: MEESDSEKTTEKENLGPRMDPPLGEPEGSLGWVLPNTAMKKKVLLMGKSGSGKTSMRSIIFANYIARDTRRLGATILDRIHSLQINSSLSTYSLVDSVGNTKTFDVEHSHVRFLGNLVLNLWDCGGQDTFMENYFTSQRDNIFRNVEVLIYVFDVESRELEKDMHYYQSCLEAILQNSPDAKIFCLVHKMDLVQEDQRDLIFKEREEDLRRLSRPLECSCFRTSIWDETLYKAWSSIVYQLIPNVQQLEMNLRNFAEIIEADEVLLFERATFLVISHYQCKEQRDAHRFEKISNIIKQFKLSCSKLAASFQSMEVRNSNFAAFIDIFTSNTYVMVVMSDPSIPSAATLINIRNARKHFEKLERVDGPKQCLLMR

Tests used:
Test in all cases: log2 fold change, soluble protein after heating vs DMSO (PISA); higher = thermal stabilisation; K562 lysate, 10 uM; active = over 0.2 and 3.5 SD of the protein, either way, in both replicates (recomputed)
lapatinib = compound: CS(=O)(=O)CCNCc1ccc(-c2ccc3ncnc(Nc4ccc(OCc5cccc(F)c5)c(Cl)c4)c3c2)o1 [lapatinib]
Method in brief: (§1)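 The values are log-two fold changes in thermal stability compared with solvent controls and come from duplicates. They were obtained by TMTpro 16plex LC-MS/MS, with channel sums equalised, on the supernatant after 21,000xg for 90 min. That supernatant came from crude K562 extract at 1 mg/mL protein treated with 10 μM compound for 30 min, heated for 3 min across 48°C-58°C, pooled and brought to 0.5% NP-40 at 4°C.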

pictilisib = compound: CS(=O)(=O)N1CCN(Cc2cc3nc(-c4cccc5[nH]ncc45)nc(N4CCOCC4)c3s2)CC1 [pictilisib]
Method in brief: as §1

crizotinib = compound: C[C@@H](Oc1cc(-c2cnn(C3CCNCC3)c2)cnc1N)c1c(Cl)ccc(F)c1Cl [crizotinib]
Method in brief: as §1

[1] = compound: C[C@H](C1=CC=C(C=C1)C(=O)NC2=C3C=CNC3=NC=C2)N
Method in brief: as §1

duvelisib = compound: C[C@H](Nc1ncnc2nc[nH]c12)c1cc2cccc(Cl)c2c(=O)n1-c1ccccc1 [duvelisib]
Method in brief: as §1

gandotinib = compound: Cc1cc(Nc2cc(CN3CCOCC3)c3nc(C)c(Cc4ccc(Cl)cc4F)n3n2)n[nH]1 [gandotinib]
Method in brief: as §1

tozasertib = compound: Cc1cc(Nc2cc(N3CCN(C)CC3)nc(Sc3ccc(NC(=O)C4CC4)cc3)n2)n[nH]1 [tozasertib]
Method in brief: as §1

doramapimod = compound: Cc1ccc(-n2nc(C(C)(C)C)cc2NC(=O)Nc2ccc(OCCN3CCOCC3)c3ccccc23)cc1 [doramapimod]
Method in brief: as §1

bafetinib = compound: Cc1ccc(NC(=O)c2ccc(CN3CC[C@H](N(C)C)C3)c(C(F)(F)F)c2)cc1Nc1nccc(-c2cncnc2)n1 [bafetinib]
Method in brief: as §1

[2] = compound: Cc1cccc(CC(=O)N2CCc3c2ccc(-c2cn(C)c4ncnc(N)c24)c3F)n1
Method in brief: as §1

nilotinib = compound: Cc1cn(-c2cc(NC(=O)c3ccc(C)c(Nc4nccc(-c5cccnc5)n4)c3)cc(C(F)(F)F)c2)cn1 [nilotinib]
Method in brief: as §1

[3] = compound: Cc1nc(Nc2n[nH]c3c2CN(C(=O)N[C@H](CN(C)C)c2ccccc2)C3(C)C)c2sccc2n1
Method in brief: as §1

dasatinib = compound: Cc1nc(Nc2ncc(C(=O)Nc3c(C)cccc3Cl)s2)cc(N2CCN(CCO)CC2)n1 [dasatinib]
Method in brief: as §1

[4] = compound: Cc1ncc(-c2ccnc(Nc3ccc(S(C)(=O)=O)cc3)n2)n1C(C)C
Method in brief: as §1

[5] = compound: Cn1cc(-c2ccc3c(c2)CCN3C(=O)Cc2cccc(C(F)(F)F)c2)c2c(N)ncnc21
Method in brief: as §1

quisinostat = compound: Cn1cc(CNCC2CCN(c3ncc(C(=O)NO)cn3)CC2)c2ccccc21 [quisinostat]
Method in brief: as §1

tipifarnib = compound: Cn1cncc1[C@@](N)(c1ccc(Cl)cc1)c1ccc2c(c1)c(-c1cccc(Cl)c1)cc(=O)n2C [tipifarnib]
Method in brief: as §1

[6] = compound: NC(=O)Nc1cc(-c2cccc(F)c2)sc1C(=O)N[C@H]1CCCNC1
Method in brief: as §1

[7] = compound: NC(=O)c1cnc(N[C@@H]2CCCC[C@@H]2N)nc1Nc1cccc(-n2nccn2)c1
Method in brief: as §1

[8] = compound: NC1(c2ccc(-c3nc4ccn5c(=O)[nH]nc5c4cc3-c3ccccc3)cc2)CCC1
Method in brief: as §1

| Target | log2 fold change (lapatinib) | log2 fold change (pictilisib) | log2 fold change (crizotinib) | log2 fold change [1] | log2 fold change (duvelisib) | log2 fold change (gandotinib) | log2 fold change (tozasertib) | log2 fold change (doramapimod) | log2 fold change (bafetinib) | log2 fold change [2] | log2 fold change (nilotinib) | log2 fold change [3] | log2 fold change (dasatinib) | log2 fold change [4] | log2 fold change [5] | log2 fold change (quisinostat) | log2 fold change (tipifarnib) | log2 fold change [6] | log2 fold change [7] | log2 fold change [8] |
| --- | --- | --- | --- | --- | --- | --- | --- | --- | --- | --- | --- | --- | --- | --- | --- | --- | --- | --- | --- | --- |
| RPP40 (UniProt O75818) | inactive: -0.005 | inactive: -0.034 | inactive: 0.05 | inactive: 0.057 | inactive: 0.037 | inactive: -0.055 | inactive: 0.026 | inactive: 0.038 | inactive: -0.011 | inactive: -0.087 | inactive: 0.019 | inactive: -0.015 | inactive: 0.014 | inactive: 0.068 | inactive: 0.071 | inactive: 0.022 | inactive: 0.035 | inactive: -0.014 | inactive: 0.01 | inactive: 0.04 |
| RRP1 (UniProt P56182) | inactive: -0.02 | inactive: -0.038 | inactive: 0.026 | inactive: 0.11 | inactive: 0.048 | inactive: -0.155 | inactive: -0.032 | inactive: -0.035 | inactive: -0.178 | inactive: -0.045 | inactive: -0.016 | inactive: 0.033 | inactive: -0.087 | inactive: -0.021 | inactive: -0.041 | inactive: 0.02 | inactive: -0.017 | inactive: -0.01 | inactive: -0.023 | inactive: 0.001 |
| RPS27L (UniProt Q71UM5) | inactive: -0.014 | inactive: -0.049 | inactive: -0.02 | inactive: 0 | inactive: 0.015 | inactive: -0.017 | inactive: -0.039 | inactive: 0.015 | inactive: -0.035 | inactive: -0.051 | inactive: 0.04 | inactive: -0.029 | inactive: -0.003 | inactive: 0.01 | inactive: -0.006 | inactive: -0.012 | inactive: 0.039 | inactive: -0.023 | inactive: -0.043 | inactive: -0.02 |
| RPS18 (UniProt P62269) | inactive: -0.046 | inactive: 0.006 | inactive: -0.028 | inactive: -0.186 | inactive: -0.019 | inactive: 0.071 | inactive: 0.008 | inactive: 0.026 | inactive: -0.004 | inactive: 0.094 | inactive: 0.004 | inactive: -0.02 | inactive: -0.009 | inactive: -0.039 | inactive: -0.018 | inactive: 0 | inactive: 0.031 | inactive: -0.018 | inactive: 0.014 | inactive: -0.006 |
| RPS9 (UniProt P46781) | inactive: -0.012 | inactive: 0.009 | inactive: 0.061 | active: 0.244 | inactive: 0.006 | inactive: -0.087 | inactive: 0.016 | inactive: -0.023 | inactive: 0.034 | inactive: -0.07 | inactive: 0.001 | inactive: -0.023 | inactive: 0.067 | inactive: -0.039 | inactive: 0.023 | inactive: 0.141 | inactive: 0.022 | inactive: -0.037 | inactive: -0.015 | inactive: 0.039 |
| RPUSD2 (UniProt Q8IZ73) | inactive: 0.003 | inactive: -0.019 | inactive: -0.005 | inactive: -0.007 | inactive: 0.018 | inactive: 0.037 | inactive: -0.033 | inactive: -0.022 | inactive: 0.068 | inactive: -0.032 | inactive: 0.009 | inactive: 0.012 | inactive: -0.003 | inactive: -0.001 | inactive: -0.02 | inactive: -0.009 | inactive: -0.005 | inactive: 0.001 | inactive: -0.003 | inactive: -0.017 |
| RRAGC (UniProt Q9HB90) | inactive: -0.02 | inactive: -0.032 | inactive: -0.021 | inactive: -0.01 | inactive: -0.006 | inactive: 0.052 | inactive: -0.043 | inactive: -0.016 | inactive: -0.05 | inactive: 0.003 | inactive: -0.023 | inactive: 0.025 | inactive: 0.032 | inactive: -0.004 | inactive: -0.003 | inactive: -0.118 | inactive: -0.013 | inactive: 0 | inactive: 0.001 | inactive: -0.031 |
| S100A13 (UniProt Q99584) | inactive: -0.013 | inactive: 0 | inactive: 0.068 | inactive: 0.019 | inactive: -0.002 | inactive: 0.014 | inactive: 0.006 | inactive: -0.015 | inactive: -0.02 | inactive: 0.011 | inactive: 0.002 | inactive: 0.007 | inactive: 0.027 | inactive: 0.006 | inactive: 0.021 | inactive: 0.061 | inactive: 0.001 | inactive: -0.023 | inactive: -0.016 | inactive: -0.037 |
| RUBCN (UniProt Q92622) | inactive: 0 | inactive: -0.027 | inactive: -0.016 | inactive: -0.101 | inactive: -0.062 | inactive: -0.005 | inactive: -0.032 | inactive: -0.009 | inactive: 0.01 | inactive: 0.044 | inactive: -0.029 | inactive: -0.01 | inactive: 0.034 | inactive: -0.033 | inactive: 0.004 | inactive: 0.01 | inactive: 0.044 | inactive: 0 | inactive: 0.116 | inactive: 0.014 |
| RPL37A (UniProt P61513) | inactive: -0.012 | inactive: -0.01 | inactive: -0.011 | active: 0.312 | inactive: -0.088 | inactive: -0.131 | inactive: -0.087 | inactive: -0.044 | inactive: 0.02 | inactive: -0.2 | inactive: 0.041 | inactive: 0.011 | inactive: 0.095 | inactive: 0.067 | inactive: 0.032 | inactive: 0.139 | inactive: 0.008 | inactive: -0.028 | inactive: -0.013 | inactive: -0.021 |
| RPTOR (UniProt Q8N122) | inactive: -0.001 | inactive: -0.024 | inactive: -0.056 | inactive: -0.044 | inactive: -0.024 | inactive: -0.097 | inactive: 0.019 | inactive: 0.025 | inactive: -0.057 | inactive: 0.009 | inactive: -0.005 | inactive: -0.035 | inactive: -0.041 | inactive: -0.016 | inactive: 0.011 | inactive: -0.057 | inactive: 0.014 | inactive: 0.047 | inactive: 0.006 | inactive: -0.041 |
| RRAGB (UniProt Q5VZM2) | inactive: 0.03 | inactive: -0.009 | inactive: 0.004 | inactive: -0.097 | inactive: 0.01 | inactive: 0.05 | inactive: -0.017 | inactive: -0.036 | inactive: -0.013 | inactive: 0.042 | inactive: -0.018 | inactive: 0.025 | inactive: 0.015 | inactive: 0 | inactive: 0.016 | inactive: 0.001 | inactive: 0.025 | inactive: -0.011 | inactive: -0.025 | inactive: 0.021 |
| RPS10 (UniProt P46783) | inactive: -0.016 | inactive: 0.019 | inactive: 0.014 | inactive: 0.034 | inactive: 0.019 | inactive: -0.044 | inactive: 0.004 | inactive: -0.018 | inactive: 0.038 | inactive: -0.025 | inactive: 0.012 | inactive: -0.001 | inactive: 0.017 | inactive: 0.018 | inactive: 0.011 | inactive: 0.05 | inactive: 0.005 | inactive: -0.013 | inactive: 0.003 | inactive: -0.009 |
| RPS28 (UniProt P62857) | inactive: 0.001 | inactive: 0.082 | inactive: 0.006 | inactive: -0.054 | inactive: 0.024 | inactive: 0.015 | inactive: 0.082 | inactive: 0.013 | inactive: 0.18 | inactive: 0.039 | inactive: -0.039 | inactive: -0.008 | inactive: 0.048 | inactive: -0.003 | inactive: -0.031 | inactive: -0.009 | inactive: 0.012 | inactive: -0.03 | inactive: 0.022 | inactive: 0.009 |
| RPS11 (UniProt P62280) | inactive: -0.026 | inactive: 0.023 | inactive: 0.011 | inactive: 0.086 | inactive: 0.05 | inactive: -0.059 | inactive: -0.007 | inactive: -0.027 | inactive: -0.022 | inactive: -0.06 | inactive: -0.01 | inactive: -0.003 | inactive: 0.033 | inactive: -0.02 | inactive: 0.012 | inactive: 0.053 | inactive: 0.017 | inactive: -0.05 | inactive: -0.023 | inactive: -0.008 |

Some values from the entries so far.
log2 fold change [4], RRAGC (UniProt Q9HB90) reads inactive: -0.004
log2 fold change (bafetinib), RPS11 (UniProt P62280) reads inactive: -0.022
